Test results taken from PubChem BioAssay AID1457 (National Center for Advancing Translational Sciences (NCATS), 2008).
The list shows a part of the results, in another mix than the full data. The source made the active and inactive calls. Calls come from the whole dose curve; as a rule, active = well fitted inhibition curve with a large enough effect; inconclusive = small, poorly fitted or top-dose-only effect; inactive = no such curve, though single readings can be large or run the other way.

Assay: qHTS Assay for Identifying the Cell-Membrane Permeable IMPase Inhibitors: Potentiation with Lithium;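 note: IP1 builds up when IMPase is blocked and the TR-FRET signal falls; nearly all actives have a fitted effect of over 50% in size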;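 for activity, negative = IMPase inhibition: plate controls were basal vehicle for no effect and high inhibitor control for full effect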
Details: CHO-M1 cells, IP1 TR-FRET (IP-One), carbachol + lithium; series mostly up to 38.3 µM; activity, negative = IMPase inhibition: at the top concentration
Excerpt: NIH Chemical Genomics Center [NCGC]
NIH Molecular Libraries Probe Production centers Network [MLPCN]
Assay Submitter (PI): Wei Zheng
Lithium has been widely used for the treatment of bipolar disorder. But lithium has a narrow therapeutic index and it can cause side effects such as thirst, weight gain, tremor, polyuria and memory problems. Although the mechanism for lithium action in treatment of bipolar disorder is still not fully understood, inhibition of inositol monophosphatase (IMPase) and the subsequent depletion of the inositol pool in living cells have been implicated as the primary therapeutic benefit of lithium therapy. Therefore, a selective IMPase inhibitor with reduced side effects might be a good drug candidate to replace lithium for the treatment of bipolar disorder. Several IMPase inhibitors have been discovered previously. However, they are not suitable for therapeutic use because of their poor cell membrane penetrability or oral bioavailability; the development of new cell-permeable IMPase inhibitors is needed.
IMPase catalyzes the hydrolysis of inositol-1-phosphate (IP1) to release free inositol. Binding of an agonist to a Gq coupled GPCR results in the activation of PLC, which hydrolyzes the PIP2 to form inositol-1,4,5-trisphosphate (IP3) and diacyl glycerol (DAG). While DAG activates protein kinase C (PKC), IP3 triggers the elevation of intracellular free Ca2+. The IP3 is very rapidly inactivated by hydrolysis to IP2, IP1 and then inositol by a series of enzymes including IMPase. Free inositols are used for synthesis of PI and thus start another inositol cycle.
To identify new cell-permeable IMPase inhibitors, we developed a cell-based IMPase assay in which the cytosolic IP1 is measured by a time-resolved fluorescence resonance energy transfer (TR-FRET) assay. In this assay, an IP1 specific antibody is used to detect the labeled IP1 tracer. When the cell lysate contains the elevated IP1 due to the inhibition of IMPase, the TR-FRET between the labeled antibody and IP1 tracer is disrupted resulting in a reduction in the total signal. Since the TR-FRET is used, this cell-based assay is a homogenous assay without cell wash and medium change that is suitable for assay miniaturization and HTS. In this particular assay, a small amount of lithium is added to potentiate the response of weak activators.
NCGC Assay Protocol Summary:
A Chinese hamster ovary (CHO) cell line stably expressing the M1 receptor (CHO-M1) was obtained from ATCC and maintained in F-12 Kaighn's media (Invitrogen, Carlsbad, CA) supplemented with 10 % FBS, 100 units/ml penicillin, 100 ug/ml streptomycin and 250 ug/ml geneticin at 37C, 5% CO2 in a humidified atmosphere. Before the assay, aliquots of cells were frozen and stored at -135C. The assay was performed in 1536-well format. Data are reported for both the ratio of the two emission wavelengths, and also for the component 'donor' channel, Em2=620. […] AC50 values were determined from concentration-response data modeled with the standard Hill equation.
(1) Frozen CHO-M1 cells were thaw, washed once with fresh media and resuspended in F12K media containing 10% FBS, 100 units/ml penicillin and 100 ug/ml streptomycin. Cells were plated at 4ul/well (2000 cells) in white, tissue culture treated 1536-well plates, and then cultured at 37C, 5 % CO2 for 16 to 30 hours.
(2) Add 23 nl/well of compound in DMSO solution. The final titration for each compound was between 0.6 nM and 46 uM.
(4) Incubation at 37C, 5 % CO2 for 30 min.
(5) Add 1 ul/well of d2-conjugated IP1 (d2-IP1) and 1 ul/well of Eu+ cryptate conjugated anti-IP1 antibody (Eu+-Ab) prepared in the cell lysis buffer, both from the IP-One kit (Cisbio, MA).
(6) Incubate at room temperature for 10 minutes.
(7) Detect the assay plate (Ex = 320, Em1 =665 and Em2 620) in a ViewLux plate reader.
Potency is the fitted concentration of half-maximal effect.

| SMILES | activity, negative = IMPase inhibition | Potency |
| --- | --- | --- |
| Cc1ccc(-c2nc3c(cnn3-c3ccccc3)c(=O)o2)cc1 | inactive: 36.8% |  |
| C/C(CC1CC2=C(CC1(C)C)C(C)(C)CCC2)=N\NC(N)=S (configuration not stated) | inactive: 49% |  |
| COc1cc2ccccc2cc1C(=O)Nc1ccc(Cc2ccncc2)cc1 | inactive: 45.5% |  |
| CCN(c1ccc(NC(=O)COC(=O)c2ccc(S(=O)(=O)N3CCCC3)cc2)cc1)C(C)C | inactive: 43.6% |  |
| CCOc1cc(C(=O)N2CCN=C2SC)cc(OCC)c1OCC | inactive: 40.8% |  |
| Cc1ccc(CNc2ccc(O)cc2)cc1 | inactive: 60.3% |  |
| CC(C)(C)C1CCC2(CC1)C(C#N)=C(SCC(=O)Nc1ccccc1)NC(=O)C2C#N (configuration not stated) | inactive: 67.1% |  |
| O=C(c1nnsc1S(=O)c1ccc(Cl)cc1)N1CCOCC1 (configuration not stated) | inactive: 30.2% [at 59.4 µM] |  |
| Cn1c(CCN2CCCCC2)nc2cc(NS(=O)(=O)c3ccccc3)ccc21 | inactive: 32.2% |  |
| Cc1ccc(Cn2c(SCC(=O)NCC3CCCO3)nc3c(sc4ccccc43)c2=O)cc1 (configuration not stated) | inactive: 21.8% |  |
| CCOC(=O)/C(C#N)=C/C1=C(N2CCCC2)CC(C)(CC)OC1 (configuration not stated) | inactive: 44.6% |  |
| CCOC(=O)/C(C#N)=C\C1=C(N2CCCC2)CC(C)(CC)OC1 (configuration not stated) | inactive: 4.81% [at 59.4 µM] |  |
| Cc1c(OCC(=O)OC(C)C)ccc2c3c(c(=O)oc12)CCC3 | inactive: 47.4% |  |
| O=C(CNC1CCCC1)Nc1ccc(N2CCCCCC2)cc1 | inactive: 38% [at 59.4 µM] |  |
| COc1ccccc1CN1C[C@@H]2C[C@@H](c3ccc(C)c(C)c3)N3CCC[C@@]23C1=O | inactive: 37.1% [at 59.4 µM] |  |
| NS(=O)(=O)c1ccc(NC(=O)c2ccccc2C(=O)N2CCCCC2)cc1 | inactive: 34.6% |  |
| CCN(CC)CCCN1C(=O)C(O)=C(C(=O)c2cc3cccc(OC)c3o2)C1c1ccncc1 (configuration not stated) |  | active: 10 µM |
